PubChem BioAssay AID652243 | Drosophila RNAi Screening Center | 2013
In all, the deposit lists about 24,000 reagents; shown is an unselected part of those that have a named target and a result. Over the whole deposit, 246 (1%) were called active. 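Plates not normalised; calls are printed but the firefly/Renilla ratio behind them is not deposited; fold cut for lowering reported inconsistently.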 Raw values vary from plate to plate and are shown uncorrected. A plus sign joins genes that one reagent is predicted to hit. Reagent sequences are not shown. Not given: the amount of reagent.

Purpose: 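Fly regulators of androgen-dependent reporter output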 (primary screen)
Cells: Drosophila S2R+ cells
Reagent: long dsRNA against Drosophila genes
Duration: 72 h (48 h, then 24 h hormone)
Conditions: synthetic androgen R1881 at 10 nM for 24 h
Detection: 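Per-well raw luminescence of the androgen-driven firefly reporter and of the Renilla control, two replicates each, without normalisation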
Direction: firefly reporter light: higher = more light from androgen-responsive reporter; Renilla control light: higher = more constitutive control signal (cell number, transfection)
Hit rule: 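Hit when the log firefly-to-Renilla ratio dropped or increased by a fixed fold versus the mean of GFP or LacZ controls across duplicate plates; lowering cut given as 1.5 and as 3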
Calls: active = hit: reporter lowered or raised; inactive = no hit

gene knocked down | amplicon | firefly reporter light, replicate 1 | firefly reporter light, replicate 2 | Renilla control light, replicate 1 | Renilla control light, replicate 2 | Call
Traf6 (TNF-receptor-associated factor 6) | DRSC18725 | 2.71e5 | 2.95e5 | 2.48e6 | 3.69e6 | inactive
Or42b (Odorant receptor 42b) | DRSC04913 | 2.70e5 | 2.74e5 | 1.77e6 | 1.95e6 | inactive
Or42b (Odorant receptor 42b) | DRSC27273 | 2.23e5 | 2.81e5 | 4.58e5 | 5.49e5 | inactive
Vtld + CG42529 | DRSC10102 | 2.71e5 | 1.73e5 | 2.09e6 | 1.83e6 | inactive
CG12851 | DRSC04131 | 2.89e5 | 2.17e5 | 1.39e6 | 1.46e6 | inactive
Tpr2 (Tetratricopeptide repeat protein 2) | DRSC03461 | 8.10e5 | 9.45e5 | 1.36e6 | 2.11e6 | inactive
mre11 (meiotic recombination 11) | DRSC03570 | 3.71e5 | 3.09e5 | 3.41e6 | 3.06e6 | inactive
mre11 (meiotic recombination 11) | DRSC22628 | 6.60e5 | 6.15e5 | 1.13e6 | 1.25e6 | inactive
mre11 (meiotic recombination 11) | DRSC26311 | 3.91e5 | 4.01e5 | 5.48e5 | 5.74e5 | inactive
CG17777 | DRSC18137 | 2.42e5 | 3.13e5 | 3.04e6 | 3.45e6 | inactive
CG12744 | DRSC06164 | 1.15e6 | 1.53e6 | 1.85e6 | 2.08e6 | inactive
Got2 (Glutamate oxaloacetate transaminase 2) | DRSC00643 | 7.68e5 | 1.05e6 | 2.18e6 | 2.30e6 | inactive
CG33223 + CG32713 | DRSC28559 | 4.08e5 | 6.64e5 | 1.10e6 | 1.52e6 | inactive
Rpt4R (Regulatory particle triple-A ATPase 4-related) | DRSC10791 | 1.77e5 | 2.58e5 | 2.41e6 | 2.52e6 | inactive
Rpt4R (Regulatory particle triple-A ATPase 4-related) | DRSC25928 | 3.84e5 | 4.52e5 | 6.39e5 | 5.49e5 | inactive
CG1620 | DRSC06603 | 1.46e6 | 1.25e6 | 2.62e6 | 2.61e6 | inactive
CG1620 | DRSC29378 | 2.73e5 | 2.70e5 | 1.01e6 | 1.01e6 | inactive
CG34267 + CG34268 | DRSC38856 | 9.05e5 | 9.32e5 | 1.79e6 | 1.55e6 | inactive
Tob (Transducer of ERBB2) | DRSC20294 | 73627 | 84886 | 6.78e5 | 8.62e5 | inactive
phu (phurba tashi) | DRSC16390 | 1.24e5 | 3.41e5 | 2.86e6 | 4.01e6 | active
phu (phurba tashi) | DRSC39306 | – | – | – | – | inactive
Cpr11A (Cuticular protein 11A) | DRSC19861 | 4.31e5 | 5.09e5 | 3.59e6 | 3.79e6 | inactive
Cpr11A (Cuticular protein 11A) | DRSC26786 | 3.25e5 | 2.79e5 | 4.14e5 | 3.54e5 | inactive
CG33108 | DRSC21613 | 1.19e6 | 9.14e5 | 2.39e6 | 2.01e6 | inactive
CG33108 | DRSC26424 | 2.61e5 | 2.91e5 | 7.48e5 | 7.73e5 | inactive
pirk (poor Imd response upon knock-in) | DRSC04269 | 1.87e5 | 1.57e5 | 1.88e6 | 1.32e6 | inactive
Npc2g (Niemann-Pick type C-2g) | DRSC14296 | 2.30e5 | 2.33e5 | 2.17e6 | 2.93e6 | inactive
CG10950 | DRSC06020 | 60462 | 79119 | 1.50e6 | 1.50e6 | inactive
ssp3 (short spindle 3) | DRSC02669 | 1.53e5 | 1.30e5 | 1.28e6 | 1.21e6 | inactive
ssp3 (short spindle 3) | DRSC02670 | 1.73e5 | 1.75e5 | 1.74e6 | 2.01e6 | inactive
ssp3 (short spindle 3) | DRSC27298 | 7.34e5 | 8.00e5 | 8.28e5 | 7.66e5 | inactive
CG1722 | DRSC20547 | 2.41e5 | 1.62e5 | 6.07e5 | 3.66e5 | inactive
CG13577 | DRSC04213 | 2.86e5 | 3.85e5 | 1.32e6 | 1.30e6 | inactive
cGlr2 (cGAS-like receptor 2) | DRSC04017 | 1.16e5 | 1.62e5 | 2.58e5 | 3.25e5 | inactive
Mov10 (Mov10 RISC complex RNA helicase) | DRSC07012 | 1.09e6 | 1.00e6 | 1.76e6 | 1.72e6 | inactive
RpS30 (Ribosomal protein S30) | DRSC15119 | 2.28e5 | 1.59e5 | 1.66e6 | 1.64e6 | inactive
RpS30 (Ribosomal protein S30) | DRSC26355 | 2.66e5 | 1.79e5 | 4.19e5 | 4.26e5 | inactive
CG31933 | DRSC00457 | 1.18e5 | 1.30e5 | 8.92e5 | 1.30e6 | inactive
CG12490 + CG30265 | DRSC25712 | 6.39e5 | 1.03e6 | 9.12e5 | 7.88e5 | inactive
Gpo2 (Glycerophosphate oxidase 2) | DRSC06822 | 2.82e5 | 2.24e5 | 1.70e6 | 1.06e6 | inactive
